PubChem BioAssay AID1224830, NIAID – 2016
The deposit covers about 18,000 reagents; this is an unselected part. Of all reagents, about 2,900 (16%) were called active. 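Calls are made per well; low scores hint the gene aids the LPS response, high scores that it dampens it.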 Unmarked entries are inactive. Repeated entries: four replicate wells of each siRNA pool. No sequences are given here.

- Purpose: 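Regulators of TLR4 signalling towards TNF-alpha in macrophage-like cells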 (primary screen)
- Cells: human THP-1 monocytic leukaemia cells, TNF dual-luciferase reporter clone, PMA-differentiated to macrophage-like cells
- Reagent: siRNA pool against human genes, 50 nM
- Time to read-out: LPS for 4 h, given about 3 days after siRNA transfection
- Treatment: bacterial LPS (TLR4 ligand), 10 ng/ml
- Measurement: 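Ratio of firefly to renilla light, scaled to the plate median and expressed as a robust z-score per replicate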
- Reading the numbers: TNF reporter robust z-score: higher = stronger TNF reporter response to LPS
- Rule for the call: 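a well is active when its z-score exceeds 2.8 or falls below -1.5; control wells carry no call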

METAP1 (GeneID 23173) | TNF reporter robust z-score: -0.11
METAP1 (GeneID 23173) | TNF reporter robust z-score: 0.12
METAP1 (GeneID 23173) | TNF reporter robust z-score: 0.72
METAP1 (GeneID 23173) | TNF reporter robust z-score: 1.78
UBAP2 (GeneID 55833) | TNF reporter robust z-score: 2.11
UBAP2 (GeneID 55833) | TNF reporter robust z-score: 2.28
UBAP2 (GeneID 55833) | TNF reporter robust z-score: -0.15
UBAP2 (GeneID 55833) | TNF reporter robust z-score: 0.76
RPTOR (GeneID 57521) | TNF reporter robust z-score: 0.26
RPTOR (GeneID 57521) | TNF reporter robust z-score: 0.11
RPTOR (GeneID 57521) | TNF reporter robust z-score: -0.23
RPTOR (GeneID 57521) | TNF reporter robust z-score: 0.19
PPME1 (GeneID 51400) | TNF reporter robust z-score: 0.15
PPME1 (GeneID 51400) | TNF reporter robust z-score: -0.44
PPME1 (GeneID 51400) | TNF reporter robust z-score: -0.53
PPME1 (GeneID 51400) | TNF reporter robust z-score: 0.16
LZTR1 (GeneID 8216) | TNF reporter robust z-score: -0.1
LZTR1 (GeneID 8216) | TNF reporter robust z-score: -0.54
LZTR1 (GeneID 8216) | TNF reporter robust z-score: 0.88
LZTR1 (GeneID 8216) | TNF reporter robust z-score: -0.13
CD101 (GeneID 9398) | TNF reporter robust z-score: -0.22
CD101 (GeneID 9398) | TNF reporter robust z-score: -0.41
CD101 (GeneID 9398) | TNF reporter robust z-score: 0.31
CD101 (GeneID 9398) | TNF reporter robust z-score: 3.77 (active)
PSMD8 (GeneID 5714) | TNF reporter robust z-score: -1.88 (active)
PSMD8 (GeneID 5714) | TNF reporter robust z-score: -1.72 (active)
PSMD8 (GeneID 5714) | TNF reporter robust z-score: -1.98 (active)
PSMD8 (GeneID 5714) | TNF reporter robust z-score: -1.84 (active)
SH3TC1 (GeneID 54436) | TNF reporter robust z-score: -0.38
SH3TC1 (GeneID 54436) | TNF reporter robust z-score: 2.83 (active)
SH3TC1 (GeneID 54436) | TNF reporter robust z-score: -0.46
SH3TC1 (GeneID 54436) | TNF reporter robust z-score: 1.68

4 entries from above, reformatted.
| target | TNF reporter robust z-score |
| --- | --- |
| PPME1 (GeneID 51400) | -0.44 |
| PPME1 (GeneID 51400) | -0.53 |
| PPME1 (GeneID 51400) | 0.16 |
| LZTR1 (GeneID 8216) | -0.1 |
